In the assay the target is DDX6 (human (endogenous in HeLa)) (UniProt P26196). In words: affinity purification with mass spectrometry; anti-DDX6 immunoprecipitation from a nuclear extract (HeLa); SDS-PAGE, silver staining, six regions of the gel cut out, LC-MS/MS.

The chains behind the UniProt entries cited, without tags or fusion partners.
UniProt P26196: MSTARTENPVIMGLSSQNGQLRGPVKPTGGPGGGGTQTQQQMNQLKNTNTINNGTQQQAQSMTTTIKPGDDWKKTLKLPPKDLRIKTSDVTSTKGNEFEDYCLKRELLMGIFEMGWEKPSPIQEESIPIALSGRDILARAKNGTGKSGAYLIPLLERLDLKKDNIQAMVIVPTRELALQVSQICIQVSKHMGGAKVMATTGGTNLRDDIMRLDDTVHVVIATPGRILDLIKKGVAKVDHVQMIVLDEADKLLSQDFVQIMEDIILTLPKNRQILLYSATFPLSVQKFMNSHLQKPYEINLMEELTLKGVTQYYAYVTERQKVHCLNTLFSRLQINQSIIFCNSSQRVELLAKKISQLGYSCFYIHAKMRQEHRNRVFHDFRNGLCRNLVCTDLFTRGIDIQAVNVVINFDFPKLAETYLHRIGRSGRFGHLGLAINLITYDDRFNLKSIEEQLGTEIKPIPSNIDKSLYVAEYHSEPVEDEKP

No constants are given. Whether binding was seen depends on the method and setting. Binding seen in cells or lysates may run through a third protein. Here binding means that the protein was enriched with, or labelled near, the bait; the list need not be complete.

B1: adenosine deaminases that act on RNA 1 (ADAR1) (protein, UniProt P55265-5 1-931)
chain: MAEIKEKICDYLFNVSDSSALNLAKNIGLTKARDINAVLIDMERQGDVYRQGTTPPIWHLTDKKRERMQIKRNTNSVPETAPAAIPETKRNAEFLTCNIPTSNASNNMVTTEKVENGQEPVIKLENRQEARPEPARLKPPVHYNGPSKAGYVDFENGQWATDDIPDDLNSIRAAPGEFRAIMEMPSFYSHGLPRCSPYKKLTECQLKNPISGLLEYAQFASQTCEFNMIEQSGPPHEPRFKFQVVINGREFPPAEAGSKKVAKQDAAMKAMTILLEEAKAKDSGKSEESSHYSTEKESEKTAESQTPTPSATSFFSGKSPVTTLLECMHKLGNSCEFRLLSKEGPAHEPKFQYCVAVGAQTFPSVSAPSKKVAKQMAAEEAMKALHGEATNSMASDNQPEGMISESLDNLESMMPNKVRKIGELVRYLNTNPVGGLLEYARSHGFAAEFKLVDQSGPPHEPKFVYQAKVGGRWFPAVCAHSKKQGKQEAADAALRVLIGENEKAERMGFTEVTPVTGASLRRTMLLLSRSPEAQPKTLPLTGSTFHDQIAMLSHRCFNTLTNSFQPSLLGRKILAAIIMKKDSEDMGVVVSLGTGNRCVKGDSLSLKGETVNDCHAEIISRRGFIRFLYSELMKYNSQTAKDSIFEPAKGGEKLQIKKTVSFHLYISTAPCGDGALFDKSCSDRAMESTESRHYPVFENPKQGKLRTKVENGEGTIPVESSDIVPTWDGIRLGERLRTMSCSDKILRWNVLGLQGALLTHFLQPIYLKSVTLGYLFSQGHLTRAICCRVTRDGSAFEDGLRHPFIVNHPKVGRVSIYDSKRQSGKTKETSVNWCLADGYDLEILDGTRGTVDGPRNELSRVSKKNIFLLFKKLCSFRYRRDLLRLSYGEAKKAARDYETAKNYFKKGLKDMGYGNWISKPQEEKNFYLCPV
For the molecule B1, the binding result was “binds”.

The record behind these values is article PMC9965400.
